The values below come from article PMC3808315.

The exact form of at least one protein or probe is not confirmed. Negatives hold for the conditions tested. At least one verdict rests on a figure or table, not on a statement of the authors.

The test system of the data set is GST-GmbZIP123 (Glycine max (soybean)). The data set is described as follows: EMSA. As to conditions: DIG Gel Shift kit (Roche) per manufacturer; pH and temperature not stated; recombinant protein; protein details: N-terminal GST (pGEX-6p-1); label: DIG.

For “AAAGACTTGGAAAACAAGGATAACATTTGGTTCTAAAATATATGGAAAAGAAAGATAGC (double strand) [AtSUC1-a mutant]”, the binding result is “no binding”.

On to “AATGTTCTAACTGACAAAAGTCCCTACCTTGC (double strand) [AtSUC1-b mutant]”, for which the binding result was “no binding”.

On to “GACAATTTCAGGTCGAAAACTCCAAAACGGCAACGCGTGGCT (double strand) [AtcwINV3-a mutant]”, for which the binding result is on record as “no binding”.

As to “GAGTCCAGACAAAATCTTTATTAACTCTGGTTGAAATCTTGAAAAGTAAAAATAT (double strand) [AtcwINV1-a mutant]”, the binding result is reported as “no binding”.

As to “TAATGACCTACTGCCAAAAGTCCTCACATTGTCA (double strand) [AtSUC5-b mutant]”, the binding result is recorded as “no binding”.

Turning to “TGTATGATATGGTCAAAAAAATTTGGATTAGGAA (double strand) [AtcwINV6-a mutant]”, the binding result is listed as “no binding”.
